# In paper PMC4605787:
# The chains behind the UniProt entries cited, without tags or fusion partners.
# UniProt P47197: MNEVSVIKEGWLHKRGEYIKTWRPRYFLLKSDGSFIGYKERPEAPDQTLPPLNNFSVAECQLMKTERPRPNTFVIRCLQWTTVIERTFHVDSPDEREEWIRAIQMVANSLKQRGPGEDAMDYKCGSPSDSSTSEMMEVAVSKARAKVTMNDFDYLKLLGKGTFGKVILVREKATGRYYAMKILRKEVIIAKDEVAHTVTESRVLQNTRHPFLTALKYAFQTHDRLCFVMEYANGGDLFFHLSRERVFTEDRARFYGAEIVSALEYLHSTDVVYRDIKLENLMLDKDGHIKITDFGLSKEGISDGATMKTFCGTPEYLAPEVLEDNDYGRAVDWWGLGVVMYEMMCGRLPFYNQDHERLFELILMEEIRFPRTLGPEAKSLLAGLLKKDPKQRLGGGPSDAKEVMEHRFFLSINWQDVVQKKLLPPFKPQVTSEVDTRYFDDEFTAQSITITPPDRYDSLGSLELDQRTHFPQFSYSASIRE
# These are yes or no findings as the source states them, for the method shown. In cells and extracts the contact can be indirect. A yes stands for co-enrichment or nearness to the bait. Other partners may have been found. Where a sequence is shown, tags or fusion partners need not be part of it.
# B1: Alcohol dehydrogenase [NADP(+)] (protein, UniProt P51635 1-325)
# chain: MTASSVLLHTGQKMPLIGLGTWKSEPGQVKAAIKYALSVGYRHIDCASVYGNETEIGEALKESVGAGKAVPREELFVTSKLWNTKHHPEDVEPAVRKTLADLQLEYLDLYLMHWPYAFERGDNPFPKNADGTVKYDSTHYKETWKALEALVAKGLVKALGLSNFSSRQIDDVLSVASVRPAVLQVECHPYLAQNELIAHCQARGLEVTAYSPLGSSDRAWRHPDEPVLLEEPVVLALAEKHGRSPAQILLRWQVQRKVICIPKSITPSRILQNIQVFDFTFSPEEMKQLDALNKNWRYIVPMITVDGKRVPRDAGHPLYPFNDPY
# B2: H/ACA ribonucleoprotein complex subunit 1 (protein, UniProt Q6AYA1 1-226)
# chain: MSFRGGGRGGFNRGGGGGGFNRGGGSNNHFRGGGGGGGGGGNFRGGGRGGFGRGGGRGGFNKFQDQGPPERVVLLGEFMHPCEDDIVCKCTTEENKVPYFNAPVYLENKEQIGKVDEIFGQLRDFYFSVKLSENMKASSFKKLQKFYIDPYKLLPLQRFLPRPPGEKGPPRGGGGGGGGGRGGRGGGRGGGGRGGGRGGGFRGGRGGGGGFRGGRGGGGGFRGRGH
# B3: Phosphatidylethanolamine-binding protein 1 (protein, UniProt P31044 1-187)
# chain: MAADISQWAGPLSLQEVDEPPQHALRVDYGGVTVDELGKVLTPTQVMNRPSSISWDGLDPGKLYTLVLTDPDAPSRKDPKFREWHHFLVVNMKGNDISSGTVLSEYVGSGPPKDTGLHRYVWLVYEQEQPLNCDEPILSNKSGDNRGKFKVESFRKKYHLGAPVAGTCFQAEWDDSVPKLHDQLAGK
# B4: Interferon-induced guanylate-binding protein 2 (protein, UniProt Q63663 1-589)
# chain: MASEIHMLQPMCLIENTEAHLVINQEALRILSAINQPVVVVAIVGLYRTGKSYLMNKLAGKRTGFSLGSTVQSHTKGIWMWCVPHPKKAGQTLVLLDTEGLEDVEKGDNQNDCWIFALAVLLSSTFVYNSMGTINQQAMDQLHYVTELTDLIKSKSSPDQSGIDDSANFVGFFPTFVWALRDFSLELEVNGKLVTPDEYLEHSLTLKKGADKKTKSFNEPRLCIRKFFPKRKCFIFDRPALRKQLCKLETLGEEELCSEFVEQVAEFTSYIFSYSAVKTLSGGIIVNGPRLKSLVQTYVGAISSGSLPCMESAVLTLAQIENSAAVQKAITHYEEQMNQKIQMPTETLQELLDLHRLIEREAIEIFLKNSFKDVDQKFQTELGNLLISKRDAFIKKNSDVSSAHCSDLIEDIFGPLEEEVKQGTFSKPGGYFLFLQMRQELEKKYNQAPGKGLEAEAVLKKYFESKEDIVETLLKTDQSLTEAAKEIEVERIKAETAEAANRELAEKQEKFELMMQQKEESYQEHVRQLTEKMKEEQKKLIEEQDNIIALKLREQEKFLREGYENESKKLLREIENMKRRQSPGKCTIL
# B5: Heterogeneous nuclear ribonucleoprotein L (protein, UniProt F1LQ48 1-623)
# chain: MSRRLLPRAEKRRRRLEQRQQPDEQLRRAGAMVKMAAAGGGGGGGRYYGGGNEGGRAPKRLKTENAGDQHGGGGGGGSGAAGGGGGENYDDPHKTPASPVVHIRGLIDGVVEADLVEALQEFGPISYVVVMPKKRQALVEFEDVLGACNAVNYAADNQIYIAGHPAFVNYSTSQKISRPGDSDDSRSVNSVLLFTILNPIYSITTDVLYTICNPCGPVQRIVIFRKNGVQAMVEFDSVQSAQRAKASLNGADIYSGCCTLKIEYAKPTRLNVFKNDQDTWDYTNPNLSGQGDPGSNPNKRQRQPPLLGDHPAEYGEGRGFPSVDSRGSCAPARRPPRKFSPVLPLFPSHPPGGPHGGYHSHYHDEGYGPPPPHYEGRRMGPPVGGHRRGPSRYGPQYGHPPPPPPPPDYGPHADSPVLMVYGLDQSKMNCDRVFNVFCLYGNVEKVKFMKSKPGAAMVEMADGYAVDRAITHLNNNFMFGQKMNVCVSKQPAIMPGQSYGLEDGSCSYKDFSESRNNRFSTPEQAAKNRIQHPSNVLHFFNAPLEVTEENFFEICDELGVKRPTSVKVFSGKSERSSSGLLEWDSKSDALETLGFLNHYQMKNPNGPYPYTLKLCFSTAQHAS
# B6: Proliferation-associated protein 2G4 (protein, UniProt Q6AYD3 1-394)
# chain: MSGEDEQQEQTIAEDLVVTKYKMGGDIANRVLRSLVEASSSGVSVLSLCEKGDAMIMEETGKIFKKEKEMKKGIAFPTSISVNNCVCHFSPLKSDQDYILKEGDLVKIDLGVHVDGFIANVAHTFVIGVAQGSQVTGRKADVIKAAHLCAEAALRLVKPGNQNTQVTEAWNKVAHSFNCTPIEGMLSHQLKQHVIDGEKTIIQNPTDQQKKDHEKAEFEVHEVYAVDVLVSSGEGKAKDAGQRTTIYKRDPSKQYGLKMKTSRAFFSEVERRFDAMPFTLRAFEDEKKARMGVVECAKHELLQPFNVLYEKEGEFVAQFKFTVLLMPNGPMRITSGPFEPDLYKSEMEVQDAELKALLQSSASRKTQKKKKKKASKTAENATSGETLEENGAGD
# B7: D-3-phosphoglycerate dehydrogenase (protein, UniProt O08651 1-533)
# chain: MAFANLRKILISDSLDPCCRKILQDGGLQVVEKQNLSKEELIAELQDCEGLIVRSATKVTADVINAAEKLQVVGRAGTGVDNVDLEAATRKGVLVMNTPNGNSLSAAELTCGMLMCLARQIPQATASMKDGKWDRKKFMGTELNGKTLGILGLGRIGREVAARMQAFGMKTVGYDPIISPEVAASFGVQQLPLEEIWPLCDFITVHTPLLPSTTGLLNDSTFAQCKKGVRVVNCARGGIVDEGALLRALQSGQCAGAALDVFTEEPPRDRALVDHENVISCPHLGASTKEAQSRCGEEIAVQFVDMVKGKSLTGVVNAQALTSAFSPHTKPWIGLAEALGTLMHAWAGSPKGTIQVVTQGTSLKNAGTCLSPAVIVGLLREASKQADVNLVNAKLLVKEAGLNVTTSHSPGVPGEQGIGECLLTVALAGAPYQAVGLVQGTTPMLQMLNGAVFRPEVPLRRGQPLLLFRAQPSDPVMLPTMIGLLAEAGVQLLSYQTSKVSDGDTWHVMGLSSLLPSLDAWKQHVSEAFQFCF
# B8: Protein disulfide-isomerase A4 (protein, UniProt P38659 21-643)
# chain: AASAEDAHEDASDSENPIEDDDDEEEDEEDEDDLEVKEENGVWVLNDENFDNFVADKDTVLLEFYAPWCGHCKQFAPEYEKIASTLKDNDPPIAVAKIDATSASMLASKFDVSGYPTIKILKKGQAVDYDGSRTQEEIVAKVREVSQPDWTPPPEVTLTLTKENFDDVVNNADIILVEFYAPWCGHCKKLAPEYEKAAKELSKRSPPIPLAKVDATEQTDLAKRFDVSGYPTLKIFRKGRPFDYNGPREKYGIVDYMVEQSGPPSKEILTLKQVQEFLKDGDDVVILGVFQGVGDPGYLQYQDAANTLREDYKFHHTFSTEIAKFLKVSLGKLVLMQPEKFQSKYEPRMHVMDVQGSTEASAIKDYVVKHALPLVGHRKTSNDAKRYSKRPLVVVYYSVDFSFDYRTATQFWRNKVLEVAKDFPEYTFAIADEEDYATEVKDLGLSESGEDVNAAILDESGKKFAMEPEEFDSDALQEFVMAFKKGKLKPVIKSQPVPKNNKGPVRVVVGKTFDAIVMDPKKDVLIEFYAPWCGHCKQLEPVYTSLGKKYKGQKDLVIAKMDATANDITNDRYKVEGFPTIYFAPSGDKKNPIKFEGGNRDLEHLSKFIDEHATKRSRTKEEL
# B9: Prostaglandin E synthase 3 (protein, UniProt P83868 1-160)
# chain: MQPASAKWYDRRDYVFIEFCVEDSKDVNVNFEKSKLTFSCLGGSDNFKHLNEIDLFHCIDPNDSKHKRTDRSILCCLRKGESGQSWPRLTKERAKLNWLSVDFNNWKDWEDDSDEDMSNFDRFSEMMDHMGGDEDVDLPEVDGADDDSQDSDDEKMPDLE
# B10: Ornithine aminotransferase, mitochondrial (protein, UniProt P04182 36-439)
# chain: GPPSSEYIFERESKYGAHNYHPLPVALERGKGIYMWDVEGRQYFDFLSAYGAVSQGHCHPKIIEAMKSQVDKLTLTSRAFYNNVLGEYEEYITKLFNYNKVLPMNTGVEAGETACKLARRWGYTVKGIQKYKAKIVFAVGNFWGRTLSAVSSSTDPTSYDGFGPFMPGFETIPYNDLPALERALQDPNVAAFMVEPIQGEAGVIVPDPGYLTGVRELCTRHQVLFIADEIQTGLARTGRWLAVDHENVRPDIVLLGKALSGGLYPVSAVLCDDDIMLTIKPGEHGSTYGGNPLGCRIAIAALEVLEEEHLAENADKMGAILRKELMKLPSDVVTAVRGKGLLNAIVIRETKDCDAWKVCLRLRDNGLLAKPTHGDIIRLAPPLVIKEDEIRESVEIINKTILSF
# B11: Aminopeptidase B (protein, UniProt O09175 1-650)
# chain: MESSGPSSCHSAARRPLHSAQAVDVASASSFRAFEILHLHLDLRAEFGPPGPGPGSRGLNGKATLELRCLLPEGASELRLDSHSCLEVMAATLLRGQPGDQQQLTEPVPFHTQPFSHYGQALCVVFPKPCCAAERFRLELTYRVGEGPGVCWLAPEQTAGKKKPFVYTQGQAVLNRAFFPCFDTPAVKCTYSALVEVPDGFTAVMSASTWERRGPNKFFFQMSQPIPSYLIALAIGDLASAEVGPRSRVWAEPCLIEAAKEEYNGVIEEFLATGEKLFGPYVWGRYDLLFMPPSFPFGGMENPCLTFVTPCLLAGDRSLADVIIHEISHSWFGNLVTNANWGEFWLNEGFTMYAQRRISTILFGAAYTCLEAATGRALLRQHMDVSGEENPLNKLRVKIEPGVDPDDTYNETPYEKGYCFVSYLAHLVGDQEQFDKFLKAYVDEFKFQSILAEDFLEFYLEYFPELKKKGVDSIPGFEFNRWLNTPGWPPYLPDLSPGDSLMKPAEELAELWAASEPDMQAIEAVAISTWKTYQLVYFLDKILQKSPLPPGNVKKLGETYPKISNAQNAELRLRWGQIILKNDHQEEFWKVKDFLQSQGKQKYTLPLYHAMMGGSEMARTLAKETFSATASQLHSNVVNYVQQILAPKGS
# B12: Putative RNA-binding protein 3 (protein, UniProt Q925G0 1-155)
# chain: MSSEEGKLFVGGLNFNTDEQALEDHFSSFGPISEVVVVKDRETQRSRGFGFITFTNPEHASDVMRAMNGESLDGRQIRVDHAGKSARGTRGGAFGAHGRGRSYSRGGGDQGYGSGRYDSRPGGYGYGYGRSRDYSGSQGGYDRYSGGNYRDNYDN
# B13: Hypoxanthine-guanine phosphoribosyltransferase (protein, UniProt P27605 1-218)
# chain: MSTLSPSVVISDDEPGYDLDLFCIPNHYAEDLEKVFIPHGLIMDRTERLARDVMKEMGGHHIVALCVLKGGYKFFADLLDYIKALNRNSDRSIPMTVDFIRLKSYCNDQSTGDIKVIGGDDLSTLTGKNVLIVEDIIDTGKTMQTLLSLVKQYSPKMVKVASLLVKRTSRSVGYRPDFVGFEIPDKFVVGYALDYNEHFRDLNHVCVISESGKAKYKA
# B14: Proteasome subunit beta type-1 (protein, UniProt P18421 28-240)
# chain: RFSPYAFNGGTVLAIAGEDFSIVASDTRLSEGFSIHTRDSPKCYKLTDKTVIGCSGFHGDCLTLTKIIEARLKMYKHSNNKAMTTGAIAAMLSTILYSRRFFPYYVYNIIEGLDEEGKGAVYSFDPVGSYQRDSFKAGGSASAMLQPLLDNQVGFKNMQNVEHVPLTLDRAMRLVKDVFISAAERDVYTGDALRICIVTKEGIREETVPLRKD
# Biological target: Akt2 (rat (endogenous in L6 myoblasts)) (UniProt P47197)
# Experiment: affinity purification with mass spectrometry; endogenous Akt2 immunoprecipitated (2 ug rabbit polyclonal anti-Akt2, protein A beads, overnight, 4°C) from 1 mg L6 myoblast lysate precleared with NIgG; cells serum-starved, with or without 100 nM insulin for 15 min; lysis buffer 50 mM HEPES pH 7.6, 150 mM NaCl, 1% Triton; 1D-SDS-PAGE, in-gel trypsin digestion, HPLC-ESI-MS/MS, label-free quantification; hits absent from all NIgG controls
row,binding,Binder
1,binds,B1
2,binds,B2
3,binds,B3
4,binds,B4
5,binds,B5
6,binds,B6
7,binds,B7
8,binds,B8
9,binds,B9
10,binds,B10
11,binds,B11
12,binds,B12
13,binds,B13
14,binds,B14
